Binding data for one molecule are collected here from publication PMC3324464, “The GPI Anchor Signal Sequence Dictates the Folding and Functionality of the Als5 Adhesin from Candida albicans” (PLoS ONE, 2012).

Sequences of proteins named here, by UniProt entry; tags and fusion partners are left off. Residues count along the entry.
UniProt Q5A8T7, residues 20-1327: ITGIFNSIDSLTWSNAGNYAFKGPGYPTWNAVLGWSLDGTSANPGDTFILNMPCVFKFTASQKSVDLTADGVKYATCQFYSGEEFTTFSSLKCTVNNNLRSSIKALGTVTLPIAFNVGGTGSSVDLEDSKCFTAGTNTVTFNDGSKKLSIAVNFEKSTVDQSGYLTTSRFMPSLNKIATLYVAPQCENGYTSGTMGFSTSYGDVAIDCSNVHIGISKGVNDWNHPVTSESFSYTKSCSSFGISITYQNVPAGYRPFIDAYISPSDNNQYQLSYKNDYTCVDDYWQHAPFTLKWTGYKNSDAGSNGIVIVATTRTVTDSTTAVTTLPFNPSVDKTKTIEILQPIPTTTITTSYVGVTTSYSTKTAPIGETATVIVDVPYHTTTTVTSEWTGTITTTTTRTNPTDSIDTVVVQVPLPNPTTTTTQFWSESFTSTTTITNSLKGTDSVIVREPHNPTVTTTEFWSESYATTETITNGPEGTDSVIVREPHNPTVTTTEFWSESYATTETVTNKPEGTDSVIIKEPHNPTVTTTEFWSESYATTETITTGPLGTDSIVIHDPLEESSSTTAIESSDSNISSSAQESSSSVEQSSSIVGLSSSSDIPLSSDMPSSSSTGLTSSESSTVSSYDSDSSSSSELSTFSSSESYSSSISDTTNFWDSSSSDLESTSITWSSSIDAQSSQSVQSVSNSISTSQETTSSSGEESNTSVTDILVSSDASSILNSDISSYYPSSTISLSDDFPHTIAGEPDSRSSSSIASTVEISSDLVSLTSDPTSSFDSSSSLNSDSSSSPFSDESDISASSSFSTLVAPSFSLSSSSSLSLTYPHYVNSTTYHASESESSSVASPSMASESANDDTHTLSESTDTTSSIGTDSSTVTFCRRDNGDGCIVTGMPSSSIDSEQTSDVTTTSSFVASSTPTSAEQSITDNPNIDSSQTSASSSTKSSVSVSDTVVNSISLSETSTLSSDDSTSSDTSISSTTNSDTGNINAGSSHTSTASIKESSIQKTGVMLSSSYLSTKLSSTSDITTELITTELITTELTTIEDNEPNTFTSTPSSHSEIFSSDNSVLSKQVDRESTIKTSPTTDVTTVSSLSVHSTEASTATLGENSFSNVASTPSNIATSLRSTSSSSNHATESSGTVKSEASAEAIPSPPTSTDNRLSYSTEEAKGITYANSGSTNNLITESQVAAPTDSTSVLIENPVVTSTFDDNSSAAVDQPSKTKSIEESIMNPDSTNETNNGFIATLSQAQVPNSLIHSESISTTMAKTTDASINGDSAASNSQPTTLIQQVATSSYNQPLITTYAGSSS

The experiment deals with GST-Als5 (Candida albicans) (UniProt Q5A8T7). Kind of experiment: other fluorescence titration; both purified.

Results are given in words; binding and its absence hold for the method and conditions named.

Regarding AYKSLMT (source: synthetic peptide (USV Ltd.)), the binding result is “no binding (condition: at 4 °C)”.
